Reference: PMC7754016
Results are given in words; binding and its absence hold for the method and conditions named. Binding seen in cells or lysates may run through a third protein. A result given as binding can be weak or reduced; the word gives no strength.

Protein sequences, listed by entry. Tags and fused reporters are not part of them. Lines headed by an entry give the natural chain unless they say otherwise; changes in a name come on top.
UniProt P35680: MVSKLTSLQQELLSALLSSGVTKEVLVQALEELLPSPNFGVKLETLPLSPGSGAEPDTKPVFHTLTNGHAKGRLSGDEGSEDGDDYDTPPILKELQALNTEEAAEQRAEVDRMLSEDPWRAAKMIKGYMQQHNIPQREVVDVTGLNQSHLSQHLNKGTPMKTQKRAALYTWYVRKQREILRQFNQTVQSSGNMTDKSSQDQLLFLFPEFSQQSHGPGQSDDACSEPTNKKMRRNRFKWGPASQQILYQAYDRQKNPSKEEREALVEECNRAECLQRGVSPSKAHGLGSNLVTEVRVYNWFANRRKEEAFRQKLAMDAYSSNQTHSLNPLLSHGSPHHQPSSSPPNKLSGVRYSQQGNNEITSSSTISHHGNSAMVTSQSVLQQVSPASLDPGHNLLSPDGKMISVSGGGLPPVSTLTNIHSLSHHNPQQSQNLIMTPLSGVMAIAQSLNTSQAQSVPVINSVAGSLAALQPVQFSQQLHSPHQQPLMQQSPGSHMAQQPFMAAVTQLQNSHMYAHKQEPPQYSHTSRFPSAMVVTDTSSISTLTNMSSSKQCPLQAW
UniProt P42771: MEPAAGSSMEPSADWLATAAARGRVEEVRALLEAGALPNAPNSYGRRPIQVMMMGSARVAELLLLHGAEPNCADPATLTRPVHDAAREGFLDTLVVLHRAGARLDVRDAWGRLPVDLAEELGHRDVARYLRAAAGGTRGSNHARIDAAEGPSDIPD

Target: Flag-HNF1B (Hepatocyte Nuclear Factor 1β) (UniProt P35680)
Assay: co-IP; Flag-HNF1B and HA-CDKN2A in HEK293T cells

HA-CDKN2A (P16, Cyclin-Dependent Kinase Inhibitor 2A) (from UniProt P42771)
binding: binds
